Results from PubChem BioAssay AID192 (DTP/NCI, 2004).
The list does not hold the whole screen: it gathers tests that were run many times, whatever their T/C, doses with no T/C, and many T/C values between a quarter and a half above the control. Other doses and runs of a compound stand elsewhere. T/C is the treated group as % of the vehicle group. Some doses have a count of surviving animals in place of a T/C: the source files T/C as zero there, which appears to mark a toxic dose or a test without result, not a measured value. Some doses without a T/C left all or most animals alive at the check, yet need not have been tolerated: survival well below the control is almost never listed, so the zero probably covers shortened survival too. Survivors were counted at the toxicity check, usually on the fifth day, unless a day is given; later deaths do not show. Schedule codes are those of the source, taken here to give the interval after Q, in days (D) or hours (H), and the number of doses after X. Additions like (4×) stand for listed records that agree. Some entries were tested several times; their values stand side by side, smallest first. Some molecules as drawn cover several salts, stereoisomers or complexes of the source; a dose is that of the sample tested. Where survival is the endpoint, this PubChem deposit counts one and a half times the control or more as active, and values a quarter to a half above the control carry no call in these data; other NCI protocols may use other cut-offs.

System: BDF1 mice, B16 melanoma ip, median survival T/C
Assay: NCI In Vivo Anticancer Drug Screen. Data for tumor model B16 Melanoma (intraperitoneal) in B6D2F1 (BDF1) mice
Conditions: T/C endpoint: median survival time, higher T/C = longer survival
Procedure, shortened: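 Compounds were tested in mice carrying transplantable tumors. Survival or tumor size was recorded, and each value is the treated-group measurement (T) divided by that of the vehicle-treated control group (C).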

[1] = dose: 50.0 mg/kg/injection, schedule: Q01DX009 (ip), vehicle: saline
[2] = dose: 200.0 mg/kg/injection, schedule: Q01DX009 (ip), vehicle: saline with Tween-80
[3] = dose: 400.0 mg/kg/injection, schedule: Q01DX009 (ip), vehicle: saline with Tween-80
[4] = dose: 25.0 mg/kg/injection, schedule: Q01DX009 (ip), vehicle: saline with Tween-80
[5] = dose: 50.0 mg/kg/injection, schedule: Q01DX009 (ip), vehicle: saline with Tween-80
[6] = dose: 25.0 mg/kg/injection, schedule: Q01DX009 (ip), vehicle: Klucel (hydroxypropylcellulose) (HPC)
[7] = dose: 50.0 mg/kg/injection, schedule: Q01DX009 (ip), vehicle: Klucel (hydroxypropylcellulose) (HPC)
[8] = dose: 100.0 mg/kg/injection, schedule: Q01DX009 (ip), vehicle: saline with Tween-80
[9] = dose: 32.0 mg/kg/injection, schedule: Q01DX009 (ip), vehicle: saline
[10] = dose: 200.0 mg/kg/injection, schedule: Q01DX009 (ip), vehicle: Klucel (hydroxypropylcellulose) (HPC)

NC(C/[N+]([O-])=N/O)C(=O)O (stereo not drawn) was tested, and the survivor count (dose: 125.0 mg/kg/injection, schedule: Q01DX009 (ip), vehicle: saline) was 10 of 10 (2×), the survivor count (dose: 125.0 mg/kg/injection, schedule: Q01DX009 (ip), vehicle: water) was 10 of 10 and the survivor count (dose: 250.0 mg/kg/injection, schedule: Q01DX009 (ip), vehicle: saline) was 10 of 10. The survivor count (dose: 250.0 mg/kg/injection, schedule: Q01DX009 (ip), vehicle: water) was 10 of 10, the survivor count (dose: 500.0 mg/kg/injection, schedule: Q01DX009 (ip), vehicle: saline) was 0 of 10 and the survivor count (dose: 500.0 mg/kg/injection, schedule: Q01DX009 (ip), vehicle: water) was 6 of 10. For the same compound, the survivor count (dose: 500.0 mg/kg/injection, schedule: Q04DX003 (ip), vehicle: saline) was 10 of 10.

CN(C)c1ccc(/C=C/c2cc[n+](C)cc2)cc1 was tested, and the survivor count (dose: 3.0 mg/kg/injection, schedule: Q04DX003 (ip), vehicle: saline with Tween-80) was 10 of 10.

For C=CCOCCN1CCN(CCCN2c3ccccc3Sc3ccc(C(F)(F)F)cc32)CC1, the survivor count (dose: 1.25 mg/kg/injection, schedule: Q01DX009 (ip), vehicle: saline) was 9 of 10 and 10 of 10, the survivor count (dose: 2.5 mg/kg/injection, schedule: Q01DX009 (ip), vehicle: saline) was 10 of 10 and the survivor count (dose: 3.12 mg/kg/injection, schedule: Q01DX009 (ip), vehicle: saline) was 10 of 10. For the same compound, the survivor count (dose: 5.0 mg/kg/injection, schedule: Q01DX009 (ip), vehicle: saline) was 10 of 10, the survivor count (dose: 6.25 mg/kg/injection, schedule: Q01DX009 (ip), vehicle: saline) was 9 of 10 and the survivor count (dose: 10.0 mg/kg/injection, schedule: Q01DX009 (ip), vehicle: saline) was 9 of 10. The survivor count (dose: 12.5 mg/kg/injection, schedule: Q01DX009 (ip), vehicle: saline) was 10 of 10, the survivor count (dose: 25.0 mg/kg/injection, schedule: Q01DX009 (ip), vehicle: saline) was 4 of 10 and the survivor count [1] was 5 of 10. For the same compound, the survivor count (dose: 100.0 mg/kg/injection, schedule: Q01DX009 (ip), vehicle: saline) was 0 of 10, the survivor count (dose: 200.0 mg/kg/injection, schedule: Q01DX009 (ip), vehicle: saline) was 0 of 10 and the survivor count (dose: 400.0 mg/kg/injection, schedule: Q01DX009 (ip), vehicle: saline) was 0 of 10.

With C#C[C@]1(O)CC[C@H]2[C@@H]3CCc4cc(O)ccc4[C@H]3CC[C@@]21C the survivor count (dose: 80.0 mg/kg/injection, schedule: Q02DX009 (ip), vehicle: Klucel (hydroxypropylcellulose) (HPC)) was 10 of 10, the survivor count (dose: 160.0 mg/kg/injection, schedule: Q02DX009 (ip), vehicle: Klucel (hydroxypropylcellulose) (HPC)) was 10 of 10 and the survivor count (dose: 320.0 mg/kg/injection, schedule: Q02DX009 (ip), vehicle: Klucel (hydroxypropylcellulose) (HPC)) was 9 of 10. The survivor count (dose: 640.0 mg/kg/injection, schedule: Q02DX009 (ip), vehicle: Klucel (hydroxypropylcellulose) (HPC)) was 5 of 10.

In the case of CNc1ncnc2c1cnn2C, the survivor count (dose: 80.0 mg/kg/injection, schedule: Q01DX009 (ip), vehicle: Klucel (hydroxypropylcellulose) (HPC)) is reported as 10 of 10.

With CCCCCCCCCCCC[N+](C)(C)C (tested in a mixture with another compound) the survivor count (dose: 28.0 mg/kg/injection, schedule: Q01DX009 (ip), vehicle: saline) was 10 of 10.

In the case of Cc1cccc(NC(=O)COc2ccc(Cl)cc2)c1C, the survivor count [2] is reported as 10 of 10 and the survivor count [3] is reported as 9 of 10.

CN1CCC=C(CN2c3ccccc3Sc3ccc(Cl)cc32)C1 was tested, and the survivor count [1] was 10 of 10.

For Nc1nc(Br)c2ccccc2c1-c1ccc([N+](=O)[O-])cc1, the survivor count [3] was 10 of 10 and the survivor count (dose: 600.0 mg/kg/injection, schedule: Q01DX009 (ip), vehicle: saline with Tween-80) was 10 of 10.

In the case of ClC(Cl)(Cl)Sn1cccn1, the survivor count (dose: 12.5 mg/kg/injection, schedule: Q01DX009 (ip), vehicle: saline with Tween-80) is reported as 10 of 10, the survivor count [4] is reported as 9 of 10 and the survivor count [5] is reported as 7 of 10.

For N#CC(C#N)=C/C=C/c1cccc([N+](=O)[O-])c1, the survivor count [6] was 9 of 10 and the survivor count [7] was 5 of 10.

With CCC(CC)OCCN1CCN(CCCN2c3ccccc3Sc3ccc(C(F)(F)F)cc32)CC1 the survivor count (dose: 2.0 mg/kg/injection, schedule: Q01DX009 (ip), vehicle: saline with Tween-80) was 10 of 10 and the survivor count (dose: 4.0 mg/kg/injection, schedule: Q01DX009 (ip), vehicle: saline with Tween-80) was 6 of 10.

In the case of CC1(c2ccc(Cl)cc2)OC(=O)C(=Cc2ccc([N+](=O)[O-])s2)C(=O)O1 (stereo not drawn), the survivor count [4] is reported as 10 of 10, the survivor count [5] is reported as 10 of 10 and the survivor count [8] is reported as 9 of 10. For the same compound, the survivor count [2] was 2 of 10.

In the case of BrCCC[P+](c1ccccc1)(c1ccccc1)c1ccccc1, the survivor count [7] is reported as 4 of 10, the survivor count (dose: 50.0 mg/kg/injection, schedule: Q04DX003 (ip), vehicle: Klucel (hydroxypropylcellulose) (HPC)) is reported as 10 of 10 and the survivor count (dose: 100.0 mg/kg/injection, schedule: Q04DX003 (ip), vehicle: Klucel (hydroxypropylcellulose) (HPC)) is reported as 8 of 10.

With Nc1nc([Se])c2ncn(C3OC(CO)C(O)C3O)c2n1 (stereo not drawn) the T/C (dose: 1.0 mg/kg/injection, schedule: Q01DX009 (ip), vehicle: saline) was 136 % of control, the T/C (dose: 16.0 mg/kg/injection, schedule: Q01DX009 (ip), vehicle: saline) was 130 % of control and the T/C [9] was 126 % of control. For the same compound, the survivor count [9] was 9 of 10 and the survivor count (dose: 64.0 mg/kg/injection, schedule: Q01DX009 (ip), vehicle: saline) was 9 of 10 (2×).

With c1ccc2c(c1)[As]=c1ccccc1=[As]2 (stereo not drawn) the survivor count (dose: 12.0 mg/kg/injection, schedule: Q01DX009 (ip), vehicle: saline with Tween-80) was 9 of 10.

In the case of CC(Cc1ccccc1)NC(=O)CCNNC(=O)c1ccncc1 (stereo not drawn), the survivor count [6] is reported as 10 of 10, the survivor count [7] is reported as 6 of 10 and the survivor count (dose: 100.0 mg/kg/injection, schedule: Q01DX009 (ip), vehicle: Klucel (hydroxypropylcellulose) (HPC)) is reported as 9 of 10. The survivor count [10] was 6 of 10.

For Cc1ccc(NC(=O)Nc2ccccc2Cl)cc1Cl, the survivor count [10] was 10 of 10.

For CCCCCCOC(CN(C)C)C(Cl)(Cl)Cl (stereo not drawn), the survivor count (dose: 200.0 mg/kg/injection, schedule: Q01DX009 (ip), vehicle: distilled water + Tween-80) was 9 of 10, the survivor count (dose: 400.0 mg/kg/injection, schedule: Q01DX009 (ip), vehicle: distilled water + Tween-80) was 7 of 10 and the survivor count [3] was 8 of 10.

In the case of N#CNN=Nc1cc(Cl)c(Cl)c(Cl)c1, the survivor count [1] is reported as 7 of 10.

CCCOC(=O)c1nc(N(CC2CCCCC2)C(=O)NC)sc1/N=C/c1ccccc1 was tested, and the survivor count [8] was 10 of 10, the survivor count [2] was 10 of 10 and the survivor count [3] was 10 of 10.
